Measured values from paper PMC4280201.

The chains behind the UniProt entries cited, without tags or fusion partners. Where a name states a change or a piece, a line headed by the entry shows the natural chain unless it says otherwise.
UniProt Q9BST9: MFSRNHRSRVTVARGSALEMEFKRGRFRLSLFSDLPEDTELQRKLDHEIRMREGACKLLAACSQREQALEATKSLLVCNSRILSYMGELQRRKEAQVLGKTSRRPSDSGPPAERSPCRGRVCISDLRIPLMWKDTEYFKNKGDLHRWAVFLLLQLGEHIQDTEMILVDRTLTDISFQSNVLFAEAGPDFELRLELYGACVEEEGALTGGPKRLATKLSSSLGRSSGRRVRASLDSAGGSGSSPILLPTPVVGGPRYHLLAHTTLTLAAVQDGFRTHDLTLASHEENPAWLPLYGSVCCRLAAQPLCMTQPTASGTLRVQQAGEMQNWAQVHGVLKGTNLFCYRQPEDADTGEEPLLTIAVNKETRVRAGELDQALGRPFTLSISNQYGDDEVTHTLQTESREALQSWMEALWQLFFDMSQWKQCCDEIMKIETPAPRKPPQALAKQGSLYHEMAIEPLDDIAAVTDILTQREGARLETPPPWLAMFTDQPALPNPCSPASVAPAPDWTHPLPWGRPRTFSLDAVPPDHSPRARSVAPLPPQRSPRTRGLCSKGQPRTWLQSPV
UniProt P62745: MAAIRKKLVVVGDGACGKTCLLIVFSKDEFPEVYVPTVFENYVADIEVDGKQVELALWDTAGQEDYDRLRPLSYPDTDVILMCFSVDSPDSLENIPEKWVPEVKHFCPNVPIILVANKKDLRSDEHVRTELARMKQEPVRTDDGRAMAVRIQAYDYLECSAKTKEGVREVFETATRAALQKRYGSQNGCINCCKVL

Biological target: Rho-binding domain (RBD) of Rhotekin on agarose beads (UniProt Q9BST9)
Test: pull-down; Rhotekin RBD agarose beads (RhoB activation assay kit, Cell Biolabs) incubated with lysates of AdTRβ-infected BHP18-21v cells treated with or without 30 nM T3 and/or 5 µM FTI for 24 h; RhoB in the precipitates detected by Western blot; only the target purified

## RhoB (active GTP-bound form) (from UniProt P62745 1-196)
  binding: binds

These are yes or no findings as the source states them, for the method shown. Binding seen in cells or lysates may run through a third protein. Binding can be weak; no strength is given.
